The exact form of at least one protein or probe is not confirmed. For some of these results: No signal at the amounts used counts as a negative.
Key:
MBP-PPR756(41-756)-HIS [1] = test: EMSA; details: 100 fmol RNA in 20 uL; 10x binding buffer: 100 mM HEPES pH 7.3, 200 mM KCl, 10 mM MgCl2, 10 mM DTT (1x: 10 mM HEPES, 20 mM KCl, 1 mM MgCl2, 1 mM DTT); 10 U RNasin; recombinant protein; protein details: N-terminal MBP, C-terminal 6xHis; label: 5' 6-FAM
MBP-PPR756(41-756)-HIS [2] = test: competition with a labelled probe; details: 100 fmol RNA in 20 uL, 10x binding buffer: 100 mM HEPES pH 7.3, 200 mM KCl, 10 mM MgCl2, 10 mM DTT (1x: 10 mM HEPES, 20 mM KCl, 1 mM MgCl2, 1 mM DTT), 10 U RNasin, recombinant protein, protein details: N-terminal MBP, C-terminal 6xHis

| Sequence | binding result (MBP-PPR756(41-756)-HIS [1]) | further results |
| --- | --- | --- |
| AAAACUAAUACCUAUUCUGUUUAGUACUUCAGGUG [probe C (nad5-1580, nad5-FAM)] | no binding | – |
| ACAGCUAUAAACAGUUUCUUGUUCCCAUUAACAA [ccmC probe (ccmC-FAM)] | binds | – |
| ACAGCUAUAAACAGUUUCUUGUUCCCAUUAACAA [unlabeled ccmC competitor] | – | binding result (MBP-PPR756(41-756)-HIS [2]; vs labeled ccmC probe): binds |
| UAUGGCGGUAACUGUCGUUUUGGUGCCAUCUUUAU [atp6 probe (atp6-FAM)] | binds | – |
| UAUGGCGGUAACUGUCGUUUUGGUGCCAUCUUUAU [unlabeled atp6 competitor] | – | binding result (MBP-PPR756(41-756)-HIS [2]; vs labeled atp6 probe): binds |
| UCCUGCUGCUCAUGGUGUUUUACGAUCAGUAUUCC [nad7 probe (nad7-FAM)] | binds | – |
| UCCUGCUGCUCAUGGUGUUUUACGAUCAGUAUUCC [unlabeled nad7 competitor] | – | binding result (MBP-PPR756(41-756)-HIS [2]; vs labeled nad7 probe): binds |

Source: publication PMC7303307
